# According to the supplement of paper PMC3334620:
# In all, about 33,000 sequences were measured (“E-score (-0.5 to 0.5)”: median about -0.0059, highest 2% from about 0.26 on). This is one part of the list.
# Molecular target: T1, Cin5 (UniProt P40917)
# T1 sequence: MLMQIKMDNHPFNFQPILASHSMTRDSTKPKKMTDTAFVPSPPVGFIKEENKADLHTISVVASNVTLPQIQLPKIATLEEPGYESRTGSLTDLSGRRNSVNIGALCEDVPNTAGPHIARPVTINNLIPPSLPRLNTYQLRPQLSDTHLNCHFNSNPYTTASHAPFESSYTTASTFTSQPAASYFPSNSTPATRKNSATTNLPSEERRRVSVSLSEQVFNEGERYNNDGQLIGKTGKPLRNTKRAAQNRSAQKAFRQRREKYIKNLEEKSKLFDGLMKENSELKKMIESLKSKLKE
# Experiment: PBM E-score (8-mer binding enrichment) (E-score (-0.5 to 0.5)); higher = stronger / more preferred TF binding
# Conditions: protein concentration: 100 nM; construct: GST-full length
# Method in brief: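 Full-length yeast transcription factors or their DNA-binding domains, GST-tagged and expressed with PURExpress, were applied at about 100-200 nM to universal all-10-mer Agilent arrays. These arrays had been made double-stranded by primer extension on fresh or once-stripped slides. Detection used fluorescent anti-GST, normalisation used masliner, and E-scores for ungapped eight-base words pooled with reverse complements came from the Universal PBM Analysis Suite.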
row,Sequence,PBM E-score
1,GGGTGCGA,-0.101
2,CCATACAA,0.11
3,AAAAATCA,0.164
4,GTTCAGGA,-0.0216
5,CCGAAAAA,0.106
6,TCAACTAA,0.136
7,GACGTTAA,0.14
8,AGAGTAAC,-0.064
9,ACGATAGG,-0.091
10,GTCTGGCA,-0.182
11,AACTTAGG,0.0035
12,GCTAGAGA,0.0134
13,GAGATGAA,-0.045
14,AAAATAGG,0.192
15,CCGGCGCC,-0.0319
16,GAAAGACC,-0.21
17,CGACTCTC,-0.119
18,ACGGTTCG,-0.122
19,CTGTGTAA,0.00241
20,TAGGGAAA,-0.0611
21,AATCATAT,0.193
22,CAGGATAC,-0.125
23,CTTTCATA,0.168
24,GTGACAAC,0.192
25,AAGCCTCC,-0.0716

row,Sequence,PBM E-score
1,ACGTTCGA,-0.127
2,AAAATGTA,0.155
3,ATGACCAG,0.0221
4,AGATGAAC,0.131
5,CTTGATTA,0.222
6,GGTGGACA,0.0474
7,AAATTCGG,0.139
8,CTATATCA,0.195
9,ATAGAGTG,0.0858
10,CCCGCTCC,-0.407
11,CAGGCACG,-0.0572
12,AAGGCCGC,-0.141
13,AGATTGGC,-0.123
14,CGGGGTTA,0.106
15,GGTTGCGA,0.0424
16,AAGTTGCG,0.0948
17,AATGTTGC,0.0262
18,ATAGCAAT,0.236
19,CCCAGGGG,-0.286
20,ACAAGACT,-0.039
21,GGTAGCCA,-0.0008
22,AGAGCAGG,-0.0422
23,TATCGAGA,0.0397
24,CTGACCAC,0.0212
25,GCCAAGAC,-0.0683

row,Sequence,PBM E-score
1,ATTCGCCA,0.219
2,AAAATCTC,0.0967
3,CTTCGAGC,-0.0333
4,CATTAAAA,0.248
5,ATGCTAAT,0.154
6,CGTGATGA,-0.0266
7,GAGCTTAC,0.191
8,AAGTCGCT,-0.117
9,GGAGGCCC,-0.383
10,CGCCGGGC,0.00796
11,TCACCTCA,0.0413
12,TATTGTAA,0.154
13,CGGCTCAA,0.0671
14,AGGCCTCC,-0.215
15,ATTGGCTG,-0.141
16,GGATTCAC,0.0079
17,GCTAACCA,-0.182
18,AGCCCTAG,-0.0694
19,GACCAAAA,0.129
20,GCGGATAA,0.23
21,AACTCAGT,0.0563
22,CCCGGGGC,-0.24
23,ATGTACAC,0.08
24,GAACCATC,0.077
25,CACGCGGA,0.221

# Single values from the results shown.
# PBM E-score with GACCAAAA is entered as 0.129
# PBM E-score with CGCCGGGC is entered as 0.00796
# PBM E-score with AACTCAGT is entered as 0.0563
# PBM E-score with ATTCGCCA is entered as 0.219
# PBM E-score with CACGCGGA is entered as 0.221
# PBM E-score with GCGGATAA is entered as 0.23

# The list goes on.

row,Sequence,PBM E-score
1,CCCTGACG,-0.106
2,AAAGCATA,0.0544
3,ATCTATAA,0.0358
4,GGGCTCCA,-0.356
5,CAGGTACA,-0.0853
6,CATATTCC,-0.0533
7,CCACCCAG,0.0499
8,AACTACAC,0.058
9,CCGCCAAA,0.154
10,TACACAAA,0.133
11,GTATGGAA,-0.0473
12,GATAGTCA,0.0148
13,GCTCTTAA,-0.0595
14,GGGGTAGA,0.126
15,CCTGTGAA,0.113
16,AATAGCTA,0.122
17,GGCTGAAC,-0.0795
18,GCGTCTTA,-0.173
19,ATGAAATG,0.163
20,CCGACACC,-0.303
21,AGGAAGTG,0.0864
22,GTACGTGA,-0.117
23,ACGATGCC,-0.373
24,ATCAACAA,0.2
25,CTAAAGCC,-0.254

row,Sequence,PBM E-score
1,ATAAGTTG,0.079
2,ACGACGTA,-0.0239
3,GCGCAACA,-0.0833
4,CCGGTAAC,-0.0256
5,ATACGGTG,0.0771
6,AACTACCT,0.143
7,CGTGTTAG,0.112
8,GCATGTTA,0.145
9,GAAAGGTC,-0.117
10,ACTTGACG,-0.0687
11,ACCCTCTG,-0.238
12,AAGGCCTA,-0.19
13,CTTTGCGA,0.0308
14,GGTTGATA,0.13
15,GAGAGGCC,-0.262
16,AATTGTGT,0.126
17,CTAGTTTA,-0.0284
18,CGCGCTTA,0.297
19,CATTTACA,0.063
20,ACTCATAT,0.0469
21,AAAGTGGA,-0.0711
22,AGGACGAG,-0.0866
23,ATACTTTA,0.206
24,ATCTCTAG,-0.076
25,CCGTCCCC,-0.289

row,Sequence,PBM E-score
1,CTGCATAC,0.109
2,TAGACAAA,-0.00829
3,CCAGGCCA,-0.259
4,AATGTTCG,0.0491
5,AACTCAAT,0.165
6,AACAATGG,0.125
7,GCGAATAC,0.15
8,CGGTACCC,-0.242
9,CCGCATGC,-0.0803
10,AACTGGCA,-0.0613
11,CCCAGCAG,-0.0156
12,CAAGTTAA,0.0667
13,ACTATACT,0.226
14,TTCCCCAA,0.175
15,CAGCATCA,0.0444
16,GCCATTTA,0.0536
17,TATTTTGA,-0.0424
18,CAAAGGCA,-0.156
19,TCGTCCAA,0.0546
20,GCATGCCA,-0.209
21,ATGGGAAT,-0.189
22,CACGCTTC,-0.169
23,CTGTTCAA,0.00171
24,GTGCGCTA,0.0868
25,AAATAGCT,0.0764

row,Sequence,PBM E-score
1,CCCATTTC,-0.0197
2,AAACGACT,0.0211
3,CTATCATA,0.21
4,CGTGTACC,-0.106
5,CACATACG,-0.0221
6,CAGTTGGC,-0.172
7,ACGCGATA,0.0786
8,GGCCATTA,0.0264
9,CGAGGAAC,0.0849
10,ATTCTGGA,0.0113
11,AGAAATGC,0.136
12,ACTATTAA,0.162
13,AAGCAGCA,-0.00515
14,ATTAGTCA,0.341
15,GTTGCCAA,-0.0741
16,AATATCGG,0.179
17,CGGTCTGA,-0.077
18,AATCGCAG,0.155
19,TCAGACAA,0.0252
20,CAGATAAA,0.11
21,GGGCGATA,-0.253
22,GTGCCCCA,-0.162
